# In PubChem BioAssay AID493014 (National Center for Advancing Translational Sciences (NCATS), 2011):
# Some of the results follow. The main result of the screen is listed elsewhere. These columns were measured beside it and carry no call. Compounds called inactive in the main read-out are mostly missing here. The note in brackets gives the kind of curve behind each potency; many fits are weak.
# Experiment: qHTS Assay to Find Inhibitors of Chronic Active B-Cell Receptor Signaling
# Settings: ABC-DLBCL IkBa-CBG/CBR reporter, luminescence ratio (green luciferase fused to IkBa over red control in TMD8 lymphoma cells), 4 h
# Outline: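 Concentration-response series (up to 46 uM) were applied to TMD8 dual-reporter cells for 4 h at 37C with doxycycline. Green/red ratio, after filter-overlap correction, defined %Activity; red signal alone was normalised to basal cells and zero luminescence.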
# [1] = measured here: CBR red luminescence, cell number
# [2] = measured here: IkBa-CBG green luminescence
Compound,AC50 [1],AC50 [2]
Cc1c(C(=O)N/N=C/c2cccnc2)sc(=S)n1C,"20.6 µM [falling, single point]",
CN(C)CCCN(C(=O)CCOc1ccccc1)c1nc2ccc(F)cc2s1,"3.16 µM [falling, full curve]",
CCOC(=O)Cc1csc(NC(=O)/C=C/c2ccccc2Cl)n1,"4.47 µM [falling, partial curve]",
C=CCn1c(SCC(=O)Nc2sccc2C(N)=O)nc2ccc(Cl)cc2c1=O,"5.01 µM [falling, full curve, poor fit]",
CCC(C(=O)NC(C)CCc1ccccc1)n1nc(C)n2c(cc3occc32)c1=O (configuration not stated),"22.4 µM [falling, single point]",
S=C(c1ccc(-c2cccc(Cl)c2)o1)N1CCCCC1,"10 µM [rising, partial curve, poor fit]",
CCc1nc2ccc(C(=O)N3CCN(c4ccc([N+](=O)[O-])cc4)CC3)cc2nc1CC,"14.1 µM [falling, single point]",
CCOc1ccccc1NC(=O)COc1ccc2c(c1)OCO2,"3.16 µM [falling, full curve, poor fit]",
CN1CCN(Cc2nc3ccccc3c(=O)n2Cc2nc(-c3ccc([N+](=O)[O-])cc3)cs2)CC1,"32.6 µM [falling, single point]","29.1 µM [rising, partial curve, poor fit]"
CCCn1c(C)cc(/C=C(\C#N)C(=O)OCC(=O)NC(=O)NC(C)(C)C)c1C,"3.66 µM [falling, partial curve, poor fit]",
CSc1nncc(/C(C)=N\Nc2ccccc2)n1,"0.355 µM [rising, full curve, poor fit]",
O=C(CSc1nc2ccccc2s1)NNC(=S)Nc1ccc(Br)cc1,"11.2 µM [rising, partial curve, poor fit]",
NNC(=O)c1cccc(COc2ccc(Br)cc2)c1,"23.1 µM [falling, single point]",
CCOC(=O)C1CCN(C(=O)COc2ccc3c(C)cc(=O)oc3c2)CC1,"18.4 µM [falling, partial curve]",
COC(=O)CCc1sc(Nc2ccc(Br)cc2)nc1-c1ccc(OC)cc1,"29.1 µM [rising, partial curve, poor fit]",
CCn1cnc2sc(-c3ccccc3)cc2c1=O,"29.1 µM [falling, single point]",
COc1ccc(C[C@H]2CN3C(=NC[C@@H]3C(C)C)N2CCNC(=O)CCC2CCCCC2)cc1,"11.2 µM [falling, partial curve]",
Cc1ccc(S(=O)(=O)N2CCN(C(=O)CSc3nccn3C)CC2)cc1,"5.62 µM [falling, single point]",
CCCCn1c(=O)nc2n(-c3ccc(C)cc3)c3ccccc3cc-2c1=O,"25.9 µM [rising, partial curve, poor fit]",
COc1ccc(/C=C(\NC(=O)c2ccco2)C(=O)NCc2ccco2)cc1,"1.58 µM [falling, partial curve, poor fit]",
CCn1c2ccccc2c2cc(/C=N/n3c(C)nnc3C)ccc21,,"4.61 µM [falling, partial curve, poor fit]"

# A draw from above in order of molecular weight, ascending:
Compound,AC50 [1],AC50 [2]
CCOC(=O)C1CCN(C(=O)COc2ccc3c(C)cc(=O)oc3c2)CC1,"18.4 µM [falling, partial curve]",
CCC(C(=O)NC(C)CCc1ccccc1)n1nc(C)n2c(cc3occc32)c1=O (configuration not stated),"22.4 µM [falling, single point]",
C=CCn1c(SCC(=O)Nc2sccc2C(N)=O)nc2ccc(Cl)cc2c1=O,"5.01 µM [falling, full curve, poor fit]",

# More results follow:

Compound,AC50 [1],AC50 [2]
CCN(C(=S)Nc1cccc(C)c1)c1ccccc1,"9.2 µM [rising, single point]",
Cn1cccc1CNC(=O)Nc1ccc(Cl)cc1,"28.2 µM [falling, single point]",
Cn1c(N)c(C(=O)COC(=O)C2CCN(S(=O)(=O)c3cccs3)CC2)c(=O)n(C)c1=O,"14.1 µM [falling, partial curve, poor fit]",
CC(C)c1ccccc1NC(=O)c1cnccn1,"2.59 µM [rising, partial curve, poor fit]",
C/C(=N\Nc1nnc(-c2ccccc2)c(-c2ccccc2)n1)c1cccc([N+](=O)[O-])c1,"1.26 µM [rising, partial curve]",
O=C(CNC(=O)c1ccc(F)cc1)c1ccccc1,"10 µM [falling, partial curve]",
COc1ccc2cc([C@H](C)C(=O)O)ccc2c1,"23.1 µM [rising, single point]",
COc1ccc2[nH]c3c(Cl)ncnc3c2c1,"2.91 µM [falling, full curve]",
Cc1ccc(CS(=O)(=O)c2ccc(C(=O)N3CCN(c4ccccn4)CC3)cc2[N+](=O)[O-])cc1,"35.5 µM [falling, single point]",
C=CCn1c(O)c(N=O)c2cc(C)ccc21,"3.55 µM [falling, single point]",
O=C(COc1ccccc1)NC1=NCCS1,"4.11 µM [rising, partial curve]",
COc1ccc(-n2c(N)c(C(=O)NCc3ccco3)c3nc4ccccc4nc32)c(OC)c1,"32.6 µM [falling, single point]",
O=C(Nc1ccc(F)cc1)N1CCN(c2ccc(F)cc2)CC1,"14.1 µM [falling, partial curve, poor fit]",
N#Cc1cccc2cccc(S(=O)(=O)N3CCOCC3)c12,"11.6 µM [rising, partial curve, poor fit]",
O=C(Nc1ccc(F)cc1)N1CCn2c(nc3ccccc32)C1,"18.4 µM [falling, single point]",
CCOc1ccc(NC(=O)CN(C)CC(=O)NC2CCCc3ccccc32)cc1OCC (configuration not stated),"29.1 µM [falling, single point]",
Cc1cccc(-c2cc3nc4c(c(N5CCCC(O)C5)n3n2)CCC4)c1 (configuration not stated),"3.16 µM [falling, partial curve, poor fit]",
Cc1sc(NC(=O)CSc2nnc(COc3ccc(Cl)cc3)n2C)c(C#N)c1C,"14.1 µM [rising, partial curve]",
COc1ccc(N/C=C(\[N+](=O)[O-])S(=O)(=O)c2ccccc2)cc1,"35.5 µM [falling, single point]",
[O-]/C(=C(\C(=S)Nc1cccc2ccccc12)[n+]1ccccc1)c1ccc(OC(F)F)cc1,"3.55 µM [falling, partial curve, poor fit]",
